# Source: the supplement of paper PMC4604168 (melanoma cell lines)
# Some of the results follow. Many values rest on one well or one pass, so single values are uncertain.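 Imaging used 1,536-well plates; nuclei positive for cleaved PARP by antibody were divided by total DNA-stained nuclei to yield the apoptosis fraction. Doses for screening kept most cells viable, and cell lines differ markedly in resting and induced cleaved-PARP levels.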
# How the values were obtained:
# Assay in all cases: cleaved PARP positive nuclei fraction relative to DMSO control; melanoma cells; higher = more apoptosis
# Conditions in all cases: library dose: low library concentration; 72 h
# CBRC034 = system: CBRC034 (line from a melanoma biopsy)
# COLO792 = system: COLO792
# COLO800 = system: COLO800
# COLO829 = system: COLO829
# G361 = system: G361
# IPC-298 = system: IPC-298
# IST-MEL1 = system: IST-MEL1
# LB2518-MEL = system: LB2518-MEL
# LOXIMVI = system: LOXIMVI
Compound,cleaved PARP positive nuclei fraction (CBRC034),cleaved PARP positive nuclei fraction (COLO792),cleaved PARP positive nuclei fraction (COLO800),cleaved PARP positive nuclei fraction (COLO829),cleaved PARP positive nuclei fraction (G361),cleaved PARP positive nuclei fraction (IPC-298),cleaved PARP positive nuclei fraction (IST-MEL1),cleaved PARP positive nuclei fraction (LB2518-MEL),cleaved PARP positive nuclei fraction (LOXIMVI)
"N#Cc1c(O)c2c(-c3ccc(-c4ccccc4O)cc3)csc2[nH]c1=O + Cc1cc([N+](=O)[O-])ccc1NS(=O)(=O)c1cc(Cl)ccc1Cl [FH535] (first compound 2 µM, partner dose 1 µM)",373%,88.2%,115%,110%,40.9%,41.2%,51.8%,43.1%,35.5%
"N#Cc1c(O)c2c(-c3ccc(-c4ccccc4O)cc3)csc2[nH]c1=O + CCCCCCCCCCCC1=C(O)C(=O)C=C(O)C1=O [Embelin] (first compound 2 µM, partner dose 1.2 µM)",103%,72.5%,73%,84%,87.8%,50.5%,38.1%,71.3%,949%
"O=C(O)c1ccc(-c2c[nH]c3ncc(-c4ccccc4)cc23)cc1C1CCCC1 + CCc1ccc(CCOc2ccc(CC3SC(=O)NC3=O)cc2)nc1 [pioglitazone] (first compound 0.16 µM, partner dose 2 µM)",46.5%,86%,119%,215%,122%,112%,249%,240%,105%
"O=C(Nc1ccccc1)c1cc([N+](=O)[O-])ccc1Cl + COc1cc2ncnc(Nc3ccc(Oc4ccccc4)cc3)c2cc1OC [SrcI1] (first compound 2 µM, partner dose 2 µM)",45.3%,90.5%,111%,103%,95.2%,139%,98.6%,141%,24.5%
"Oc1nc(-c2ccc(C(F)(F)F)cc2)nc2c1CSCC2 + CC(C)CCN1c2nc(Nc3cc(F)c(O)c(F)c3)ncc2N(C)C(=O)C1C [BID1870] (first compound 2 µM, partner dose 0.2 µM)",51.5%,98.1%,155%,73.5%,87.1%,47.7%,174%,349%,35.9%
"O=C(O)C(=O)Nc1sc2c(c1C(=O)O)CCNC2 + O=c1cc(-c2cccc3c2Sc2ccccc2S3)oc(N2CCOCC2)c1 [KU55933] (first compound 1.66667 µM, partner dose 1 µM)",168%,57.3%,112%,84.7%,19.7%,111%,40.3%,72.1%,2830%
"O=c1cc(-c2cccc3c2Sc2ccccc2S3)oc(N2CCOCC2)c1 + CC(C)CCN1c2nc(Nc3cc(F)c(O)c(F)c3)ncc2N(C)C(=O)C1C [BID1870] (first compound 1 µM, partner dose 0.2 µM)",79.2%,158%,106%,73.4%,92.5%,60.1%,152%,139%,26.8%
"O=C(Nc1ccccc1)c1cc([N+](=O)[O-])ccc1Cl + Oc1nc(-c2ccc(C(F)(F)F)cc2)nc2c1CSCC2 [XAV939] (first compound 2 µM, partner dose 2 µM)",83%,73.3%,58.2%,87.6%,120%,54.2%,41.2%,83.5%,58.8%
"Cc1cc([N+](=O)[O-])ccc1NS(=O)(=O)c1cc(Cl)ccc1Cl + c1cc(-c2cnn3cc(-c4ccc(OCCN5CCCCC5)cc4)cnc23)ccn1 [Dorsomorphin] (first compound 1 µM, partner dose 0.4 µM)",407%,85.7%,83.9%,102%,320%,60.3%,261%,89.4%,70%
"O=C(O)C(=O)Nc1sc2c(c1C(=O)O)CCNC2 + Cc1cc([N+](=O)[O-])ccc1NS(=O)(=O)c1cc(Cl)ccc1Cl [FH535] (first compound 1.66667 µM, partner dose 1 µM)",387%,107%,56.2%,224%,41.9%,74.7%,92.2%,232%,73.7%
"COc1ccc2c(c1)CCC1C2CCC2(C)C(NCCCCCCN3C(=O)C=CC3=O)CCC12 (stereo not given) + Oc1nc(-c2ccc(C(F)(F)F)cc2)nc2c1CSCC2 [XAV939] (first compound 0.4 µM, partner dose 2 µM)",18.9%,220%,66.1%,141%,91.8%,160%,249%,85.4%,97.5%
"CCc1ccc(CCOc2ccc(CC3SC(=O)NC3=O)cc2)nc1 (stereo not given) [pioglitazone] + c1cc(-c2cnn3cc(-c4ccc(OCCN5CCCCC5)cc4)cnc23)ccn1 [Dorsomorphin] (first compound 2 µM, partner dose 0.4 µM)",73.9%,256%,49.5%,84.8%,94.3%,86.4%,21.6%,225%,93.7%
"NCC(=O)Nc1ccc(-n2nc(C(F)(F)F)cc2-c2ccc3c(ccc4ccccc43)c2)cc1 + COc1cc2ncnc(Nc3ccc(Oc4ccccc4)cc3)c2cc1OC [SrcI1] (first compound 1 µM, partner dose 2 µM)",92.5%,96.9%,93.5%,215%,231%,238%,51.3%,68.4%,57.5%
"CN(NC(=O)CC(=O)NN(C)C(=S)c1ccccc1)C(=S)c1ccccc1 + COc1cc(N2CCC(N3CCN(C)CC3)CC2)ccc1Nc1ncc(Cl)c(Nc2ccccc2S(=O)(=O)C(C)C)n1 [NVP-TAE684] (first compound 0.006 µM, partner dose 0.08 µM)",126%,103%,204%,306%,148%,124%,222%,252%,154%
"O=C(O)C(=O)Nc1sc2c(c1C(=O)O)CCNC2 + c1cc(-c2cnn3cc(-c4ccc(OCCN5CCCCC5)cc4)cnc23)ccn1 [Dorsomorphin] (first compound 1.66667 µM, partner dose 0.4 µM)",53%,75%,65.2%,82.3%,85.2%,81.1%,56.9%,239%,29.9%
"NCC(=O)Nc1ccc(-n2nc(C(F)(F)F)cc2-c2ccc3c(ccc4ccccc43)c2)cc1 + CC(C)CCN1c2nc(Nc3cc(F)c(O)c(F)c3)ncc2N(C)C(=O)C1C [BID1870] (first compound 1 µM, partner dose 0.2 µM)",194%,136%,62.6%,68.9%,112%,29.8%,63.2%,41.1%,39.6%
"CN(C)S(=O)(=O)c1ccc2c(c1)/C(=C/c1cc3c([nH]1)CCCC3)C(=O)N2 + CCc1ccc(CCOc2ccc(CC3SC(=O)NC3=O)cc2)nc1 [pioglitazone] (first compound 0.4 µM, partner dose 2 µM)",214%,109%,121%,101%,87.9%,170%,57.2%,99.8%,43.8%
"COc1ccc2c(c1)CCC1C2CCC2(C)C(NCCCCCCN3C(=O)C=CC3=O)CCC12 (stereo not given) + O=S(=O)(c1ccccc1)N(CC(F)(F)F)c1ccc(C(O)(C(F)(F)F)C(F)(F)F)cc1 [T0901317] (first compound 0.4 µM, partner dose 1.4 µM)",293%,55.6%,135%,105%,72.9%,200%,107%,75.1%,43.3%
"NCC(=O)Nc1ccc(-n2nc(C(F)(F)F)cc2-c2ccc3c(ccc4ccccc43)c2)cc1 + O=C(Nc1ccccc1)c1cc([N+](=O)[O-])ccc1Cl [GW9662] (first compound 1 µM, partner dose 2 µM)",151%,181%,159%,78.9%,52.8%,134%,29.9%,80.1%,46.6%
"Cc1cc([N+](=O)[O-])ccc1NS(=O)(=O)c1cc(Cl)ccc1Cl + O=c1cc(-c2cccc3c2Sc2ccccc2S3)oc(N2CCOCC2)c1 [KU55933] (first compound 1 µM, partner dose 1 µM)",384%,70.9%,30.5%,92.6%,87.7%,97.1%,110%,76.6%,93.8%
"COc1ccc(COc2ccc(Cc3cnc(N)nc3N)cc2OC)cc1 + CCCCCCCCCCCC1=C(O)C(=O)C=C(O)C1=O [Embelin] (first compound 1 µM, partner dose 1.2 µM)",141%,31.5%,137%,130%,73.5%,158%,119%,256%,116%
"CN(NC(=O)CC(=O)NN(C)C(=S)c1ccccc1)C(=S)c1ccccc1 + O=C(Nc1ccccc1)c1cc([N+](=O)[O-])ccc1Cl [GW9662] (first compound 0.006 µM, partner dose 2 µM)",766%,129%,310%,225%,329%,82.3%,163%,258%,55.2%
"COc1cc2c(Oc3ccc4[nH]c(C)cc4c3F)ncnc2cc1OCCCN1CCCC1 [cediranib] + COc1ccc(COc2ccc(Cc3cnc(N)nc3N)cc2OC)cc1 [GW2580] (first compound 0.4 µM, partner dose 1 µM)",91.9%,132%,38.6%,60.7%,159%,161%,75%,76.2%,33.5%
"NCC(=O)Nc1ccc(-n2nc(C(F)(F)F)cc2-c2ccc3c(ccc4ccccc43)c2)cc1 + CCN(CC)CCCCNc1ncc2cc(-c3cc(OC)cc(OC)c3)c(NC(=O)NC(C)(C)C)nc2n1 [PD173074] (first compound 1 µM, partner dose 0.1 µM)",81.7%,144%,65.3%,83%,101%,304%,56.4%,79.4%,38.5%
"CCN(CC)CCCCNc1ncc2cc(-c3cc(OC)cc(OC)c3)c(NC(=O)NC(C)(C)C)nc2n1 + O=C1NC(=O)/C(=C/c2ccc(-c3ccc(F)cc3O)o2)S1 [AS252424] (first compound 0.1 µM, partner dose 1 µM)",43.9%,72.8%,168%,62.5%,17.1%,110%,270%,177%,28.7%

# Random excerpt: two entries already listed
Compound,cleaved PARP positive nuclei fraction (CBRC034),cleaved PARP positive nuclei fraction (COLO792),cleaved PARP positive nuclei fraction (COLO800),cleaved PARP positive nuclei fraction (COLO829),cleaved PARP positive nuclei fraction (G361),cleaved PARP positive nuclei fraction (IPC-298),cleaved PARP positive nuclei fraction (IST-MEL1),cleaved PARP positive nuclei fraction (LB2518-MEL),cleaved PARP positive nuclei fraction (LOXIMVI)
"COc1ccc2c(c1)CCC1C2CCC2(C)C(NCCCCCCN3C(=O)C=CC3=O)CCC12 (stereo not given) + Oc1nc(-c2ccc(C(F)(F)F)cc2)nc2c1CSCC2 [XAV939] (first compound 0.4 µM, partner dose 2 µM)",18.9%,220%,66.1%,141%,91.8%,160%,249%,85.4%,97.5%
"O=c1cc(-c2cccc3c2Sc2ccccc2S3)oc(N2CCOCC2)c1 + CC(C)CCN1c2nc(Nc3cc(F)c(O)c(F)c3)ncc2N(C)C(=O)C1C [BID1870] (first compound 1 µM, partner dose 0.2 µM)",79.2%,158%,106%,73.4%,92.5%,60.1%,152%,139%,26.8%
